Measurements from the supplement of paper PMC12823440, “Inhibitors supercharge kinase turnover through native proteolytic circuits” (Nature, 2025).
Structures can show the parent of a compound that is named as a salt. Some of the results follow. Hit calls seldom repeat between salt and free forms of one compound.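 In K562 cells expressing nanoluciferase-fused kinases, luminescence was recorded at 4 h intervals between 2 and 18 h, normalized as percent of control with DMSO at 100% and a positive control at 0%. A significant (2 sigma) signal drop marks a time point as decreased. The authors' rule for a hit is not shown and takes in more than the number of time points.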

By UniProt entry, the sequences of proteins in these tests, tags left out. Where a name states a change or a piece, a line headed by the entry shows the natural chain unless it says otherwise.
UniProt P31749: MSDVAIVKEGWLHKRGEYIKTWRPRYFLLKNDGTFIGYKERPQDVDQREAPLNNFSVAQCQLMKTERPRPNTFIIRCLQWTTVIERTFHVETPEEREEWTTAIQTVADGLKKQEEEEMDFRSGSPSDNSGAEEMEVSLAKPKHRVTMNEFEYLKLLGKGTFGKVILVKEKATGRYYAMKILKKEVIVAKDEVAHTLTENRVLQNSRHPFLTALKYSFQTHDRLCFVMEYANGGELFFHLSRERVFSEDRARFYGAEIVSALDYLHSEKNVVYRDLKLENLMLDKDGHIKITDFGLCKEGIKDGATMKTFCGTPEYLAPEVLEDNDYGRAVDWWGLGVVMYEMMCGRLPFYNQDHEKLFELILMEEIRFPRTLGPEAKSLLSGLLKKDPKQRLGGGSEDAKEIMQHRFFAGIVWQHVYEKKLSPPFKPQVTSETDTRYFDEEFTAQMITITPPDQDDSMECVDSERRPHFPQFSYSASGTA
UniProt P10398: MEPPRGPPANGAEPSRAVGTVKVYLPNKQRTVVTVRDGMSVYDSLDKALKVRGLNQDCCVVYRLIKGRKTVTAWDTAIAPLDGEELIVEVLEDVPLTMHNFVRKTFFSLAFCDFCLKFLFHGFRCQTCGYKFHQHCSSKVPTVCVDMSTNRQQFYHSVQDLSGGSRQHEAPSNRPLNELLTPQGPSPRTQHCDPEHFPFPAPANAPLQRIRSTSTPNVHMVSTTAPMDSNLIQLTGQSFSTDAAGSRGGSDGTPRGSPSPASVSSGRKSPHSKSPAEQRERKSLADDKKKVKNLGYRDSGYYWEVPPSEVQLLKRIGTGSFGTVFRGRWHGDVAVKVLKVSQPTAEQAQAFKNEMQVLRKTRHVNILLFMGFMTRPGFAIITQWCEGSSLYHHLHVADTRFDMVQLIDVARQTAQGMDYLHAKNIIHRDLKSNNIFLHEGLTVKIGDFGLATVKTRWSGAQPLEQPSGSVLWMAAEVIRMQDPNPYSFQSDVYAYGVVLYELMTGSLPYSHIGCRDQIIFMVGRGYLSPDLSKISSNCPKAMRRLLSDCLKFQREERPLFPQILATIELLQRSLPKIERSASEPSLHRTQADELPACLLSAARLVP
UniProt O14965: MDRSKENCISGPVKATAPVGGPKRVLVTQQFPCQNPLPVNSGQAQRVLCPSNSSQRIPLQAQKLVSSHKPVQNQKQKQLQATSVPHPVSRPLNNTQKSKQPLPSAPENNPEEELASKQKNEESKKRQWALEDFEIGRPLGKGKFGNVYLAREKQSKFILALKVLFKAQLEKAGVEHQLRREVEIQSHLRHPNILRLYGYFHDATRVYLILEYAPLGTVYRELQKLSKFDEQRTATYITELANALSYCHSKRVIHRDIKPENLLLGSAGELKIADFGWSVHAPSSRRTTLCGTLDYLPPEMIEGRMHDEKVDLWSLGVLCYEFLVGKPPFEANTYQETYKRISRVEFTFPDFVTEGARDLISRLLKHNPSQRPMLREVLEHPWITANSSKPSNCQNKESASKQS
UniProt Q96GD4, whole entry: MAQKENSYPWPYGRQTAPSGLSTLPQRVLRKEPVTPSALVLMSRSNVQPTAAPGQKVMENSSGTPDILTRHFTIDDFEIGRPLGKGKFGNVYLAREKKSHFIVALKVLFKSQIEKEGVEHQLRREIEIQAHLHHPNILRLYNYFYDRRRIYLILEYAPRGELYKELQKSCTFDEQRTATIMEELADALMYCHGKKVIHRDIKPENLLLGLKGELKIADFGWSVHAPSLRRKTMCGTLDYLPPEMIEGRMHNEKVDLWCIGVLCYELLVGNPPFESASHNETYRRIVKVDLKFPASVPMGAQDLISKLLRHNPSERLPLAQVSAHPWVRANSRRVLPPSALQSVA
UniProt Q9UQB9: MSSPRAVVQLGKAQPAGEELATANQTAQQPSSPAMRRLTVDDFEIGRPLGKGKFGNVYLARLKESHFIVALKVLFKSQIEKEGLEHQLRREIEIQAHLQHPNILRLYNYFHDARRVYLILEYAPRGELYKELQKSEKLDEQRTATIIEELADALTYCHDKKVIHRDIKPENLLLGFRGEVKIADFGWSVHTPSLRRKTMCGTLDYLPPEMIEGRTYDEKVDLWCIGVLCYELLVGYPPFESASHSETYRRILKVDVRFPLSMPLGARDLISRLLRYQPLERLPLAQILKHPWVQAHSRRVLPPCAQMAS
UniProt P51451: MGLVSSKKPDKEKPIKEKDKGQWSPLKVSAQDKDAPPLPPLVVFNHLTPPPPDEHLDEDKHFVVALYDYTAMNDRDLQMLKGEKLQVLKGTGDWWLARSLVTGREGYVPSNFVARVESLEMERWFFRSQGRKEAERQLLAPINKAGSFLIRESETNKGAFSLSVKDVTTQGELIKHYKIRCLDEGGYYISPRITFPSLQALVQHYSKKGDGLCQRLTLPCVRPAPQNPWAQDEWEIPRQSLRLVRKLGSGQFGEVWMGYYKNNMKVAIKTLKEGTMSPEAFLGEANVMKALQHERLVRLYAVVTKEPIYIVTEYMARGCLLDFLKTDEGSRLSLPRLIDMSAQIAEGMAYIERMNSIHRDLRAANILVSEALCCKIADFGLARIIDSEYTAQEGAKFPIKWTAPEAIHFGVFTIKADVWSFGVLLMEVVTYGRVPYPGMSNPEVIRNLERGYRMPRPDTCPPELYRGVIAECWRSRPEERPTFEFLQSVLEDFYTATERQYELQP
UniProt P51813: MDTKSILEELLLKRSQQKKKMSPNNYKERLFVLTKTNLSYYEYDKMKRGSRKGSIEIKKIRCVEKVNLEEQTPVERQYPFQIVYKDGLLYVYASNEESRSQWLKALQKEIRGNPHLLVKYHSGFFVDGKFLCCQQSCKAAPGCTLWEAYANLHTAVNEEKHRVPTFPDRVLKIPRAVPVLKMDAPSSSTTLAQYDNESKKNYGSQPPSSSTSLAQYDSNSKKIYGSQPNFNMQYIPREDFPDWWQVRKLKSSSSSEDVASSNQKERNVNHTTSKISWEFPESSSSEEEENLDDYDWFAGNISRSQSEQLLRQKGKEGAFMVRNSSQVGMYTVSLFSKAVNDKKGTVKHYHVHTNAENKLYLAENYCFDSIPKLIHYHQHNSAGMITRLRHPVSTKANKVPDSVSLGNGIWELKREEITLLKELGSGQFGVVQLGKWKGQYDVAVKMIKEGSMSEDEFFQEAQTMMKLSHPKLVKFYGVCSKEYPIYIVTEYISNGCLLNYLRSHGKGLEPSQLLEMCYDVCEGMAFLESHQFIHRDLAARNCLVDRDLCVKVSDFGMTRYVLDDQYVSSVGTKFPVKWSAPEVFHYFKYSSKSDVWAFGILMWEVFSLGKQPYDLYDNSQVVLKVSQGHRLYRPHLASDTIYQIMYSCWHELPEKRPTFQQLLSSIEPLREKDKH
UniProt Q06187: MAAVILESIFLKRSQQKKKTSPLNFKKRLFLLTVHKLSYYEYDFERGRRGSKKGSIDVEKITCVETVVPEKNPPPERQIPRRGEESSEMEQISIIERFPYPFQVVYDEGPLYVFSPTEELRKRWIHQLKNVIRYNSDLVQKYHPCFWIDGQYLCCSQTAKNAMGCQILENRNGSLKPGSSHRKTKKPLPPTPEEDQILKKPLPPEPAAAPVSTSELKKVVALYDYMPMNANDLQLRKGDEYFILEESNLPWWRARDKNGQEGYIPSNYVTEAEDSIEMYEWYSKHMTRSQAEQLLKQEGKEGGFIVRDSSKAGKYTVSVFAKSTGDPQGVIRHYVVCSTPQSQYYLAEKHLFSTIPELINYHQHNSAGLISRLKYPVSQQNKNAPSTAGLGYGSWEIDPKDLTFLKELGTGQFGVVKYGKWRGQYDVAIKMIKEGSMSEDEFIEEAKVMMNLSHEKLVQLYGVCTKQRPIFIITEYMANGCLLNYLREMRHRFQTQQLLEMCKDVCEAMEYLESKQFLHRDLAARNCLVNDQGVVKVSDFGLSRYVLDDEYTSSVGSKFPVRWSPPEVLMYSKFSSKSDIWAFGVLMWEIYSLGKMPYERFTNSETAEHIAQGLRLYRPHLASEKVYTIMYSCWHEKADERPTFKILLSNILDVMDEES
UniProt Q9UQM7, whole entry: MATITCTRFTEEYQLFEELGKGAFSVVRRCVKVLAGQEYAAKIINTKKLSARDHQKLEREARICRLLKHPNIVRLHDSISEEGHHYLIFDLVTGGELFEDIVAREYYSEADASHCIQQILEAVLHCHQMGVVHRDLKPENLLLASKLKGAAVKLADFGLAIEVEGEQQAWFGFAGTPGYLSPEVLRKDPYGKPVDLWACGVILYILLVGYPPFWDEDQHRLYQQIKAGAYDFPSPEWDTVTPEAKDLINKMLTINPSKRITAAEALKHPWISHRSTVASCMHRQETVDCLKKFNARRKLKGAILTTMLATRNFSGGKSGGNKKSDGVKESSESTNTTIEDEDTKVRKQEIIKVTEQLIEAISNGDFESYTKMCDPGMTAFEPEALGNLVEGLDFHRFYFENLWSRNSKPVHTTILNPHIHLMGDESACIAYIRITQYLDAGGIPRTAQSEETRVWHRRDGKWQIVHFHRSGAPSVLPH
UniProt Q13555: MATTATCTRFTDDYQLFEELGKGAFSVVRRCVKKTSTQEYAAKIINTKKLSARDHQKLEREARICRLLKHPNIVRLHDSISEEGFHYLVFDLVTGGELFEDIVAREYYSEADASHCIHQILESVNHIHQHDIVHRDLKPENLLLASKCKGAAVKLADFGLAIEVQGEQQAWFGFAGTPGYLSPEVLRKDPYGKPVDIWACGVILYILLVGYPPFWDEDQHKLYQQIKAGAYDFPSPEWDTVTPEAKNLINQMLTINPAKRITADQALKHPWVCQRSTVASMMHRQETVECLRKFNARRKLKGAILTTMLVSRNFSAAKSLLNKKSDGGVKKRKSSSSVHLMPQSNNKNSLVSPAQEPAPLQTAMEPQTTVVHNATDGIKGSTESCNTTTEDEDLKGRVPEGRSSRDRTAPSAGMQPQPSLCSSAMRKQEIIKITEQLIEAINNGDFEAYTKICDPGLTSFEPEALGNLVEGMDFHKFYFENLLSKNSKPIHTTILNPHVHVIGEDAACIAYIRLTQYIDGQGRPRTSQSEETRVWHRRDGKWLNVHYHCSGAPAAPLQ
UniProt Q15131: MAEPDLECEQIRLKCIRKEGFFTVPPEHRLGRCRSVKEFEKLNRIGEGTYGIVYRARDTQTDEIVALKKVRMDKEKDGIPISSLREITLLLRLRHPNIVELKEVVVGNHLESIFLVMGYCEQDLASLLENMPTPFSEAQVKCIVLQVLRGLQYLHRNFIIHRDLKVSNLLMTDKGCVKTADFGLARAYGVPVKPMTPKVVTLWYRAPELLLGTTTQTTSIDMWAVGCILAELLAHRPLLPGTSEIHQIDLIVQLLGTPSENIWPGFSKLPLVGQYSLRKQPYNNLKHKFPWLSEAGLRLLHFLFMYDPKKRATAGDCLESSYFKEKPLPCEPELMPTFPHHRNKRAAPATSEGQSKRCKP
UniProt Q00526: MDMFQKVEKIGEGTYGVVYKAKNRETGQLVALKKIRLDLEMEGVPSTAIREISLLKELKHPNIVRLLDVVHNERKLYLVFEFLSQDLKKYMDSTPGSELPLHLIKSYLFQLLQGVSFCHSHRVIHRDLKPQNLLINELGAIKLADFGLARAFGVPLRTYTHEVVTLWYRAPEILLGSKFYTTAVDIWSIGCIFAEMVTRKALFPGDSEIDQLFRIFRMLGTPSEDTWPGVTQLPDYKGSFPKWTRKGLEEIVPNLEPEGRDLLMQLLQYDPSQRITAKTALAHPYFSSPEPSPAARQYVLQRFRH
UniProt Q00535, whole entry, looked up: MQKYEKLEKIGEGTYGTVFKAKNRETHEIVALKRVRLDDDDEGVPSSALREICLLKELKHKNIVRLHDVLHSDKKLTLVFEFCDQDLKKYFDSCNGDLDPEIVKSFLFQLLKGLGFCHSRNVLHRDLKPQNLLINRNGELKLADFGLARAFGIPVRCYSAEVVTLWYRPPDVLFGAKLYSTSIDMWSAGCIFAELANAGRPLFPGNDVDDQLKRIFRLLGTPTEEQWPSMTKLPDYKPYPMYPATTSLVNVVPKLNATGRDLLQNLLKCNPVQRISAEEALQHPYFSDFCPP
UniProt Q00534, whole entry: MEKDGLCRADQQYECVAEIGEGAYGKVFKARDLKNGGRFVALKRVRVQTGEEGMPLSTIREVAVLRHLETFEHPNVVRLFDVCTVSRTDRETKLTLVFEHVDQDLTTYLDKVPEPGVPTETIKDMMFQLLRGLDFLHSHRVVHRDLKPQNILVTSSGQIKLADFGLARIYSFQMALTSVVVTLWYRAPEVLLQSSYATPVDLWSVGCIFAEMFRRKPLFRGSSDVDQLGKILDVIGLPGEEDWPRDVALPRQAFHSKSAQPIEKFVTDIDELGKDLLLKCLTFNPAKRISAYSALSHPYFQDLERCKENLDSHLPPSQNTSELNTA

Columns and labels:
Assay in all cases: kinase-Nluc reporter destabilization hit call (1 = scored as downregulated) (binary); higher = compound decreases kinase abundance
Details in all cases: K562; 2-18 h
ABL1 = ABL1 (UniProt P00519)
AKT1 = AKT1 (UniProt P31749)
ALK = ALK (UniProt Q9UM73)
ARAF = ARAF (UniProt P10398)
AURKA = AURKA (UniProt O14965)
AURKB = AURKB (UniProt Q96GD4)
AURKC = AURKC (UniProt Q9UQB9)
BLK = BLK (UniProt P51451)
BMX = BMX (UniProt P51813)
BRAF = BRAF (UniProt P15056)
BRAF_V600E = tested on: BRAF_V600E
BTK = BTK (UniProt Q06187)
CAMK2A = CAMK2A (UniProt Q9UQM7)
CAMK2G = CAMK2G (UniProt Q13555)
CDK10 = CDK10 (UniProt Q15131)
CDK2 = CDK2 (UniProt P24941)
CDK3 = CDK3 (UniProt Q00526)
CDK4 = CDK4 (UniProt P11802)
CDK5 = CDK5 (UniProt Q00535)
CDK6 = CDK6 (UniProt Q00534)

Measured: kinase-Nluc reporter destabilization hit call

CC(C)n1c(CO)nc2c(F)cc(-c3nc(Nc4ccc(CN5CCNCC5)cn4)ncc3F)cc21 (10 µM)
inactive: ABL1 = 0 | AKT1 = 0 | ALK 0 | ARAF 0 | AURKA 0 | AURKB 0 | AURKC 0 | BLK 0 | BMX 0 | BRAF 0 | BRAF_V600E 0 | BTK 0 | CAMK2A 0 | CAMK2G 0 | CDK10 = 0 | CDK2 = 0 | CDK3 = 0 | CDK4 = 0 | CDK5 = 0 | CDK6 = 0

CCC(F)(F)c1cc(N2CCC(S(C)(=O)=O)CC2)nc2sc(C(N)=O)c(N)c12 (10 µM)
inactive: ABL1 = 0 | AKT1 = 0 | ALK 0 | ARAF 0 | AURKA 0 | AURKB 0 | AURKC 0 | BLK 0 | BMX 0 | BRAF 0 | BRAF_V600E 0 | BTK 0 | CAMK2A 0 | CAMK2G 0 | CDK10 = 0 | CDK2 = 0 | CDK3 = 0 | CDK4 = 0 | CDK5 = 0 | CDK6 = 0

Nc1ccc(O)c(C(=O)O)c1 [5-Aminosalicylic Acid] (10 µM)
inactive: ABL1 = 0 | AKT1 = 0 | ALK 0 | ARAF 0 | AURKA 0 | AURKB 0 | AURKC 0 | BLK 0 | BMX 0 | BRAF 0 | BRAF_V600E 0 | BTK 0 | CAMK2A 0 | CAMK2G 0 | CDK10 = 0 | CDK2 = 0 | CDK3 = 0 | CDK4 = 0 | CDK5 = 0 | CDK6 = 0

CCOc1cc(=O)[nH]cc1-c1ccc(CC(=O)Nc2cc(C(C)(C)C(F)(F)F)on2)c(F)c1 (10 µM)
inactive: ABL1 = 0 | AKT1 = 0 | ALK 0 | ARAF 0 | AURKA 0 | AURKB 0 | AURKC 0 | BLK 0 | BMX 0 | BRAF 0 | BRAF_V600E 0 | BTK 0 | CAMK2A 0 | CAMK2G 0 | CDK10 = 0 | CDK2 = 0 | CDK3 = 0 | CDK4 = 0 | CDK5 = 0 | CDK6 = 0

Cc1ncc(-c2cc(F)c(O)c(F)c2)cc1-c1cc(F)c(O)c(F)c1 (10 µM)
inactive: ABL1 = 0 | AKT1 = 0 | ALK 0 | ARAF 0 | AURKA 0 | AURKB 0 | AURKC 0 | BLK 0 | BMX 0 | BRAF 0 | BRAF_V600E 0 | BTK 0 | CAMK2A 0 | CAMK2G 0 | CDK10 = 0 | CDK2 = 0 | CDK3 = 0 | CDK4 = 0 | CDK5 = 0 | CDK6 = 0

Cc1cncc2cccc(S(=O)(=O)N3CCCNC[C@@H]3C)c12 [H-1152 (dihydrochloride)] (10 µM)
inactive: ABL1 = 0 | AKT1 = 0 | ALK 0 | ARAF 0 | AURKA 0 | AURKB 0 | AURKC 0 | BLK 0 | BMX 0 | BRAF 0 | BRAF_V600E 0 | BTK 0 | CAMK2A 0 | CAMK2G 0 | CDK10 = 0 | CDK2 = 0 | CDK3 = 0 | CDK4 = 0 | CDK5 = 0 | CDK6 = 0

CN1CCN(Cc2ccc(-c3cnc4[nH]cc(-c5ccc6[nH]ccc6c5)c4c3)cc2)CC1 (2.5 µM)
inactive: ABL1 = 0 | AKT1 = 0 | ALK 0 | ARAF 0 | AURKA 0 | AURKB 0 | AURKC 0 | BLK 0 | BMX 0 | BRAF 0 | BRAF_V600E 0 | BTK 0 | CAMK2A 0 | CAMK2G 0 | CDK10 = 0 | CDK2 = 0 | CDK3 = 0 | CDK4 = 0 | CDK5 = 0 | CDK6 = 0

COc1ccc2cc1Oc1ccc(cc1)C[C@H]1c3cc(c(OC)cc3CCN1C)Oc1c(O)c(OC)cc3c1[C@H](C2)N(C)CC3 [Fangchinoline] (2.5 µM)
inactive: ABL1 = 0 | AKT1 = 0 | ALK 0 | ARAF 0 | AURKA 0 | AURKB 0 | AURKC 0 | BLK 0 | BMX 0 | BRAF 0 | BRAF_V600E 0 | BTK 0 | CAMK2A 0 | CAMK2G 0 | CDK10 = 0 | CDK2 = 0 | CDK3 = 0 | CDK4 = 0 | CDK5 = 0 | CDK6 = 0

NC(=O)c1sc2c([N+](=O)[O-])cc(C(F)(F)F)cc2[n+]1[O-] [Cyclapolin 9] (10 µM)
inactive: ABL1 = 0 | AKT1 = 0 | ALK 0 | ARAF 0 | AURKA 0 | AURKB 0 | AURKC 0 | BLK 0 | BMX 0 | BRAF 0 | BRAF_V600E 0 | BTK 0 | CAMK2A 0 | CAMK2G 0 | CDK10 = 0 | CDK2 = 0 | CDK3 = 0 | CDK4 = 0 | CDK5 = 0 | CDK6 = 0

Nc1ccc(Sc2nc3ccccc3s2)c(Cl)c1 [KRAS inhibitor-9] (10 µM)
inactive: ABL1 = 0 | AKT1 = 0 | ALK 0 | ARAF 0 | AURKA 0 | AURKB 0 | AURKC 0 | BLK 0 | BMX 0 | BRAF 0 | BRAF_V600E 0 | BTK 0 | CAMK2A 0 | CAMK2G 0 | CDK10 = 0 | CDK2 = 0 | CDK3 = 0 | CDK4 = 0 | CDK5 = 0 | CDK6 = 0

N#Cc1cc(-c2ccnc(Nc3ccc(N4CCOCC4)cc3)n2)ccc1OC1CCOCC1 (10 µM)
inactive: ABL1 = 0 | AKT1 = 0 | ALK 0 | ARAF 0 | AURKA 0 | AURKB 0 | AURKC 0 | BLK 0 | BMX 0 | BRAF 0 | BRAF_V600E 0 | BTK 0 | CAMK2A 0 | CAMK2G 0 | CDK10 = 0 | CDK2 = 0 | CDK3 = 0 | CDK4 = 0 | CDK5 = 0 | CDK6 = 0

N=C(NC(=N)N1CCCC1)Nc1ccc(OC(F)(F)F)cc1 (10 µM)
inactive: ABL1 = 0 | AKT1 = 0 | ALK 0 | ARAF 0 | AURKA 0 | AURKB 0 | AURKC 0 | BLK 0 | BMX 0 | BRAF 0 | BRAF_V600E 0 | BTK 0 | CAMK2A 0 | CAMK2G 0 | CDK10 = 0 | CDK2 = 0 | CDK3 = 0 | CDK4 = 0 | CDK5 = 0 | CDK6 = 0

CC1=C(C#N)C(c2ccc3[nH]nc(C)c3c2)C(C#N)=C(C)N1 (10 µM)
inactive: ABL1 = 0 | AKT1 = 0 | ALK 0 | ARAF 0 | AURKA 0 | AURKB 0 | AURKC 0 | BLK 0 | BMX 0 | BRAF 0 | BRAF_V600E 0 | BTK 0 | CAMK2A 0 | CAMK2G 0 | CDK10 = 0 | CDK2 = 0 | CDK3 = 0 | CDK4 = 0 | CDK5 = 0 | CDK6 = 0

3 entries already listed, ordered by heavy-atom count, high to low.
N#Cc1cc(-c2ccnc(Nc3ccc(N4CCOCC4)cc3)n2)ccc1OC1CCOCC1 (10 µM)
inactive: ABL1 = 0 | AKT1 = 0 | ALK 0 | ARAF 0 | AURKA 0 | AURKB 0 | AURKC 0 | BLK 0 | BMX 0 | BRAF 0 | BRAF_V600E 0 | BTK 0 | CAMK2A 0 | CAMK2G 0 | CDK10 = 0 | CDK2 = 0 | CDK3 = 0 | CDK4 = 0 | CDK5 = 0 | CDK6 = 0

NC(=O)c1sc2c([N+](=O)[O-])cc(C(F)(F)F)cc2[n+]1[O-] [Cyclapolin 9] (10 µM)
inactive: ABL1 = 0 | AKT1 = 0 | ALK 0 | ARAF 0 | AURKA 0 | AURKB 0 | AURKC 0 | BLK 0 | BMX 0 | BRAF 0 | BRAF_V600E 0 | BTK 0 | CAMK2A 0 | CAMK2G 0 | CDK10 = 0 | CDK2 = 0 | CDK3 = 0 | CDK4 = 0 | CDK5 = 0 | CDK6 = 0

Nc1ccc(Sc2nc3ccccc3s2)c(Cl)c1 [KRAS inhibitor-9] (10 µM)
inactive: ABL1 = 0 | AKT1 = 0 | ALK 0 | ARAF 0 | AURKA 0 | AURKB 0 | AURKC 0 | BLK 0 | BMX 0 | BRAF 0 | BRAF_V600E 0 | BTK 0 | CAMK2A 0 | CAMK2G 0 | CDK10 = 0 | CDK2 = 0 | CDK3 = 0 | CDK4 = 0 | CDK5 = 0 | CDK6 = 0

(more compounds)

COC(=O)N1CCN(C2CCC(Nc3nc(Nc4cnn(C)c4)nc4ccc(CC#N)nc34)CC2)CC1 (stereo not given) (10 µM)
inactive: ABL1 = 0 | AKT1 = 0 | ALK 0 | ARAF 0 | AURKA 0 | AURKB 0 | AURKC 0 | BLK 0 | BMX 0 | BRAF 0 | BRAF_V600E 0 | BTK 0 | CAMK2A 0 | CAMK2G 0 | CDK10 = 0 | CDK2 = 0 | CDK3 = 0 | CDK4 = 0 | CDK5 = 0 | CDK6 = 0

CC/C(=C(\c1ccccc1)c1ccc(OCCNC)cc1)c1ccccc1 [N-Desmethyltamoxifen (hydrochloride)] (2.5 µM)
inactive: ABL1 = 0 | AKT1 = 0 | ALK 0 | ARAF 0 | AURKA 0 | AURKB 0 | AURKC 0 | BLK 0 | BMX 0 | BRAF 0 | BRAF_V600E 0 | BTK 0 | CAMK2A 0 | CAMK2G 0 | CDK10 = 0 | CDK2 = 0 | CDK3 = 0 | CDK4 = 0 | CDK5 = 0 | CDK6 = 0

O=C1OC(COc2ccccc2[N+](=O)[O-])CC1Cc1ccccc1 (stereo not given) (10 µM)
inactive: ABL1 = 0 | AKT1 = 0 | ALK 0 | ARAF 0 | AURKA 0 | AURKB 0 | AURKC 0 | BLK 0 | BMX 0 | BRAF 0 | BRAF_V600E 0 | BTK 0 | CAMK2A 0 | CAMK2G 0 | CDK10 = 0 | CDK2 = 0 | CDK3 = 0 | CDK4 = 0 | CDK5 = 0 | CDK6 = 0

O=C(NC[C@H](O)CO)c1ccncc1Nc1ccc(I)cc1F [Pimasertib] (10 µM)
inactive: ABL1 = 0 | AKT1 = 0 | ALK 0 | ARAF 0 | AURKA 0 | AURKB 0 | AURKC 0 | BLK 0 | BMX 0 | BRAF 0 | BRAF_V600E 0 | BTK 0 | CAMK2A 0 | CAMK2G 0 | CDK10 = 0 | CDK2 = 0 | CDK3 = 0 | CDK4 = 0 | CDK5 = 0 | CDK6 = 0
